Assay results published in EP1257261B1, “ANTIVIRAL PHARMACEUTICAL COMPOSITIONS CONTAINING IRON CHELATORS” (Faculteit Geneeskunde Universiteit Utrecht, priority 1999, dated 2001).
At least one structure is not confirmed: it was looked up by name or label, or the drawing left a doubt.

Tested on: PBL
Assay: Lymphocyte proliferation, overnight 3H-thymidine incorporation
Assay type: cell-based, human
Conditions: concentrations studied, 4 days incubation then overnight 3H-TdR
From the text: Peripheral Blood Mononuclear Cell (PBMC) fractions were isolated from heparinized blood from HIV-1-, HIV-2- and hepatitis B-seronegative donors (Bloodbank, Utrecht, The Netherlands) by Ficoll-Isopaque gradient separation. Cells were washed twice and were then either subjected to counter-current centrifugal elutriation, or monocytes in the PBMC fraction were allowed to adhere to fibronectin-coated flasks before the PBL fraction was harvested. Monocytes were of >95% purity by criteria of cell morphology on May-Grunwald-Giemsa-stained cytosmears and by non-specific esterase staining using (α-naphthylacetate (Sigma Chemical Co., St. Louis, MO) and PBL >85% purity by May-Grunwald-Giemsa-staining. Viability of both cell types was >95% at the point of experiment initiation as determined by trypan-blue exclusion. Isolated monocytes were cultured in suspension at a concentration of 2 x 10^6 cells/ml in teflon flasks minimizing adherence (Nalgene, Rochester, NY) and allowed to differentiate for 7 days. MDM medium consisted of Dulbecco's modified Eagle's medium supplemented with 10% heat-inactivated human AB serum, negative for anti-HIV antibodies (Bloodbank Utrecht, NL), 10 µg/ml gentamycin (Life Technologies Ltd, Paisley, Scotland), 5 µg/ml ciprofloxacin (Beyer, Leverkusen, Germany), 0.6 mg/ml L-glutamine (Sigma) and 3.4 g/L bicarbonate (Merck, Darmstadt, Germany). […]

## CC(=O)N(O)CCCCCNC(=O)CCC(=O)N(O)CCCCCNC(=O)CCC(=O)N(O)CCCCCN [DF, deferoxamine]
  cellular proliferation (3H-thymidine incorporation): decrease in proliferation
